Measurements reported in paper PMC10682436.

Target: FLAG-tagged OVOL2 stably expressed in EL4 T cells (mouse) (UniProt Q8CIV7)
Assay: affinity purification with mass spectrometry; anti-FLAG M2 agarose IP (4 h, 4 °C) from EL4 T cells stably expressing FLAG-tagged OVOL2, with (20 or 100 unit) or without DNase I; washed five times in Nonidet P-40 lysis buffer; eluted with 3xFlag peptide; LC-MS/MS; three independent analyses; empty vector control

Binder	binding
genetic suppressor element 1 (GSE1), endogenous in EL4 T cells (protein, UniProt Q3U3C9 1-1213) MKGMSHEPKSPSIGMLSTATRTTATVNPLTPSPLNGALVPTGSPATSSTLSAQAAPSSSFAAALRKLAKQAEEPRGSSLSSESSPVSSPATNHSSPASTPKRVPMGPIIVPPGGHSVPSTPPVVTIAPTKTVNGVWRSESRQDSGSRGSSSGRERLLVEPPLAQEKAAGPAIPSHLLSTPYPFGLSPGSVVQDSRFQPLNLQRPVHHVVPPSTVTEDYLRSFRPYHTAEDLRMSSLPPLGLDPATAAAYYHPSYLAPHPFPHPAFRMDDSYCLSALRSPFYPIPTPGSLPPLHPSAMHLHLSGVRYPPELSHSSLAALHSERMSSLSAERLQMDEELRREREREREREREADREREKEREREQREKEREKELEREREKERERELERQREQRAREKELLAAKALEPTTFLPVAELHGLRGHSTEERPKPSEQLTPTRAEKLKDVGLQAPKPVQHPLHPVPAPHHTVPSLISSHGIFSLPGSSATTALLIQRTNEEEKWLARQRRLRQEKEDRQSQVSEFRQQVLEQHLDLGRPLVPTEAEHRPESTRPGTNRHEQGSREPPQHFGGPPPLISPKPQQHTVPTALWNPVSLMDNALETRRAESHSLHSHPTAFEPSRQAAVPLVKVERVYCSEKAEEPRKREATPLDKYQPPPPPPPPREAGSLEPQTFPHGPGPFLTELEKSTQTILGQQRPSLSQATSFGELSGPLKPGSPYCHPTARGPDPAYIYDEFLQQRRKLVSKLDLEERRRREAQEKGYYYDLDDSYDESDEEEVRAHLRCVAEQPPLKLDTSSEKLEFLQLFGLTTQQQKEELVAQKRRKRRRMLRERSPSPPAVQCKRQTPSPRLALSTRYSPDEMNNSPNFEEKRKFLTFFNLTHISAEKRKDKERLVEMLRAMKQRALSAADSVTNSSRDSPPVSLSEPATQPAPLETDQPVGVPASLSDVPKTTETGRLEQLRPQELLRVQEPAPPSGEKARLSEAPGGKKSLSMLHYLRGAAPKDIPVPLSHSINGKSKPWEPFVAEEFAHQFHESVLQSTQKALQKHKGNSALLSAEQSHKVDTAIHYNIPELQSSSRVPLPQHNGQQEPPMGRKGPPMQEADQDSEEDSEEDSEEEAEEAPRRQWQGIEAIFEAYQEHIEEQNLERQVLQTQCRRLEAQNYSLSLTAEQLSHSMAELRSQKQKMVSERERLQAELDHLRKCLALPTMHWPRGYFKGYPR	binds
high mobility group 20 A (HMG20A), endogenous in EL4 T cells (protein, UniProt Q9DC33 1-346) MESLMASSTLPPLFADEDGSKESNDLATSGLTHPEGPYGSAATSTTNPEFVEDLSQGQLLQSEASNAVEGNEQRPEDEQRSKRGGWSKGRKRKKPLRDSNAPKSPLTGYVRFMNERREQLRAKRPEVPFPEITRMLGNEWSKLPPEEKQRYLDEADRDKERYMKELEQYQKTEAYKVFSRKTQDRQKGKSHRQDAARQATHDHEKETEVKERSVFDIPIFTEEFLNHSKAREAELRQLRKSNMEFEERNAALQKHVESMRTAVEKLEVDVIQERSRNTVLQQHLETLRQMLTSSFASMPLPGSGEIPTVDTIDSYMNRLHSIILANPQDNENFIATVREVVNRLDR	binds

No constants are given. Whether binding was seen depends on the method and setting. In cells and extracts the contact can be indirect. These calls come from enrichment with a bait or labelling near it, and not all partners need be listed.
